Primary screen of a compound library

Mtb cholesterol medium: 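Growth of Mycobacterium tuberculosis over 4 days (cholesterol / DPPC medium with tyloxapol); the read-out is not stated. Tested at 50 µM. The record gives no direction; compounds that gave an IC50 in retests scored well above the rest, so higher reads as more growth inhibition. Size under these conditions: about 69,000 compounds, about 370 of them at 50% or above in at least one test.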
Mtb glucose medium: 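Whole-cell growth test on Mycobacterium tuberculosis, read after 3 days in glucose-containing 7H9 medium; the read-out is not stated. Tested at 50 µM. Higher reads as more growth inhibition (inferred: compounds with an IC50 in retests scored well above the rest). About 69,000 compounds were tested under these conditions; 1.1% (about 760) showed 50% or more at least once.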

Results are given as percent effect.
How 0% and 100% were set is not recorded. Most values in the screen are low, and negative values occur.
Compounds were drawn at random from those tested, without regard to their results.
Two or more numbers in one place are separate tests of the same structure; such repeats can differ widely.

Compound | Mtb cholesterol medium | Mtb glucose medium
O=C(O)C(F)(F)F.O=C(O)C(F)(F)F.[H][C@@]12CCN(c3ccc(C)nn3)C[C@]1([H])[C@@H](CN(C)Cc1ccco1)OC2 | -11.98 | 2.785
Cc1cncc(C(=O)N2CCCC(O)(CO)C2)c1 (stereo unspecified) | 17.76 | 7.799
Clc1cccc(OCCCN2CCOC(Cn3cncn3)C2)c1 (stereo unspecified) | 10 | 20.07
COc1ccc(-c2nnc(C(C)N3CCC4(CC3)OCCO4)o2)cc1 (stereo unspecified) | 17.74 | 11.91 and 23.66
Cc1sc2ncnc(N3CCC(N(C)Cc4cnn(C)c4)CC3)c2c1C | 12.48 | -9.371
[H][C@]12CCN[C@@]1([H])CN(C(=O)NCC(C)C)C2 | 8.854 | 19.79
Cc1cnc(NC(=O)c2cccc(CN(C)Cc3ccno3)c2)s1 | 48.83 | 26.8
NC(=O)CC1CCCN(c2cncc(SCc3ccccc3)n2)C1 (stereo unspecified) | 10.68 | -1.124
O=C(CCNS(=O)(=O)c1ccc(F)cc1)NCc1ccoc1 | -0.5032 and -7.549 | -4.339
Cc1cc(NC(=O)N2CCCC(O)C2)nn1-c1ccccc1Cl (stereo unspecified) | -3.313 | 2.743 and 0.5223
O=C(O)C(F)(F)F.O=C(O)C(F)(F)F.[H][C@@]12C[C@@H](C(=O)NC)N(C(C)C)[C@]1([H])CN(c1ncccn1)C2 | -5.012 | -1.908 and -23.86
CNC(=O)Cc1n[nH]c(-c2cncc(Br)c2)n1 | -42.43 | -7.504
CC(C)(C)n1ncc(C(=O)NCCCC(N)=O)c1C(F)(F)F | -5.27 | 2.138 and -11.45
Cc1cccc(NC(=O)c2sccc2C)n1 | 0.8299 | -5.648 and -5.749
CC(=O)NCCNC(=O)C1(N2CCCCC2)Cc2ccccc2C1 | -5.76 | 1.264
O=S(=O)(CCCNCCn1cccn1)c1ccccc1 | 0.4442 | 3.609
CCOCCNC(=O)Nc1cccc(-c2nccn2C)c1 | -10.72 | 6.298
Cc1nc(NCc2nonc2C)cc(C(C)Cn2nc(C)c(C)c2C)n1 (stereo unspecified) | -1.357 and 3.191 | -9.292
O=C1CCCN1Cc1nc(-c2ccsc2)no1 | -7.34 | 5.758
Cc1cnn(CC2CCCN2CC(=O)Nc2cc(C)no2)c1 (stereo unspecified) | -4.461 | -27.3
CS(=O)(=O)CCC(=O)Nc1nccn1Cc1ccccc1Cl | 5.054 | -13.46
CC(C)CN1C(=O)CC(N2CCN(c3ccc(F)cc3)CC2)C1=O (stereo unspecified) | -18.33 | -25.98
CC(=O)Nc1nc(CN2CCOC(Cn3cncn3)C2)cs1 (stereo unspecified) | 5.448 | -3.986
CCCn1nc2c(cc1=O)CN(Cc1ccccn1)CC2 | -18.81 | -39.09
Cc1cnc(CNc2ccccc2CN(C)C(=O)c2cccs2)o1 | 7.152 | -33.08
CCN1CCN(CCCNC(=O)NC(C)c2nncn2C)CC1 (stereo unspecified) | -3.516 | -6.489 and -14.21
CC(=O)NC1CCCN(C(=O)Nc2cnc3c(cnn3C(C)C)c2)C1 (stereo unspecified) | -18.59 | -1.41
CCN(CC)C(=O)Cn1cc(-c2nc(-c3ccccc3C)no2)nn1 | -14.99 | -4.233
[H][C@]12CCCCN1CCC[C@@]2(O)CN(CC)Cc1nc(COC)no1 | 6.618 | 1.684 and 5.9
Cc1ccc(C(=O)O)cc1S(=O)(=O)N(C)c1cccc(C#N)c1 | -23.22 and -7.801 | -2.683 and -16.57
O=C(O)C(F)(F)F.O=C(O)C(F)(F)F.[H][C@@]12CCN(c3ncc(F)cn3)[C@]1([H])CC[C@@H](C(=O)NCc1cccnc1)O2 | 9.44 and -3.908 | 2.033
CCS(=O)(=O)N1CCc2nc(C3CCN(C(=O)C4CC4)C3)nc(O)c2C1 (stereo unspecified) | 5.73 | -7.769
COCCOc1ccc(C(=O)N[C@@H]2CNCCC[C@H]2O)cc1 | 7.569 | -16.82 and 2.904
CNC(=O)CCc1cccc(C2CCCN(c3cc(C)ncn3)C2)n1 (stereo unspecified) | 8.063 and -1.251 | 0.584
Cc1nccc(N2CCCC(c3nnc(Cn4ccnc4C)n3C)C2)n1 (stereo unspecified) | -23.57 | -33.14
COc1ccc(F)c(CNC2CCCc3nc(N(C)C)ncc32)c1 (stereo unspecified) | -5.586 | 1.028 and -2.881
Cc1cnn(CC2CN(CC(=O)N(C)Cc3ccsc3)CCO2)c1 (stereo unspecified) | -7.56 | -16.44
O=C(O)C(F)(F)F.[H][C@]12C[C@H](C(=O)NC)N(C)[C@@]1([H])CN(S(=O)(=O)c1ccccc1)C2 | -20.86 | -10.28
COc1ccc(OC)c(C(O)CN2CCN(c3cccc(C)c3)CC2)c1 (stereo unspecified) | 16.88 | 30.04
CN(CCNC(=O)N1CCN(Cc2ccon2)CC1)C1CCCC1 | 7.065 | 10.44
CCn1cnnc1CNC(=O)NC(c1ccccc1)C1CCCC1 (stereo unspecified) | -1.505 and 11.9 | 6.536
Cn1cccc1C(=O)N1CCn2nnc(COc3cccnc3)c2C1.O=C(O)C(F)(F)F | -1.865 | -15.51
CCS(=O)(=O)N1CCC2(CN(Cc3ccc(C)o3)C2)C1 | 6.574 and -9.217 | -8.353
CCn1nnc(NCc2ccccc2OCc2ccc(Cl)cc2)n1 | 49.1 | 50.8
Cc1nccn1C1(C(=O)O)CCN(Cc2ccc3c(c2)OCCO3)CC1 | -0.3327 | -0.4832
CCOCCN1CCN(Cc2nc(C3CC3)no2)CC1CC (stereo unspecified) | -37.77 | -8.737 and -2.825
CC(C)(C)CC(=O)NCCn1nc(C2CCNC2)c2cccnc21.Cl (stereo unspecified) | 10.6 | 5.284
Cc1cc(C)n(CC2CCCN2Cc2nc(N)c3ccccc3n2)n1 (stereo unspecified) | 2.092 | 14.91
COc1ccccc1C1(CNCc2cccc(C#N)c2)CCOCC1 | -13.53 | -11.66 and 4.61
CNC(=O)Nc1cc(-c2ccc(Br)cc2)nn1CCO | -5.103 | 2.164 and 22.95
O=C(CC1=CCCCC1)NCc1ccnc(OC2CCOCC2)c1 | -4.216 | 16.87
CN(c1cccnn1)C1CCN(C(=O)Cc2c[nH]c3ccccc23)CC1 | -17.72 | 23.89
CCOCCN1CCN(CCc2nc3ccccc3c(=O)[nH]2)CC1 | -10.49 | -5.768
O=C(O)C(F)(F)F.O=C(O)C(F)(F)F.[H][C@@]12CN(CCOC)CCO[C@]1([H])CN(Cc1sccc1C)C2 | 12.41 | -5.936 and 15.8
COc1ccc(OC)c(C(O)CNC(=O)Nc2cccnc2OC)c1 (stereo unspecified) | -15.93 | -33.45
CC(O)c1cn(C2CCN(C(=O)C3(C)CCN(C)CC3)CC2)nn1 (stereo unspecified) | 3.089 | -0.637 and -3.466
c1ccc(-c2nc3c(c(NCCn4ccnn4)n2)CCNCC3)nc1 | 16.02 | -11.75
O=C(O)C(F)(F)F.[H][C@@]12CN(Cc3cccc(C#N)c3)C[C@]1([H])CN(c1ncccn1)C2 | 6.904 | -4.171
CCn1ncnc1C(C)NC(=O)CC1CCN(C(C)C)CC1 (stereo unspecified) | -6.816 and -40.26 | -62.67 and -11.57
O=C(C1CCC1)N1CCC2(CCCN2CC2CC2)CC1.O=C(O)C(F)(F)F | -3.701 and -7.435 | -50.7
O=C(c1cccc2c1OCO2)N1CCC(N2CCCC2)CC1 | -6.479 | -16.2
Cc1cn(CC(=O)NCC(=O)NC2CC2)c2ccccc12 | -18.74 | 1.394
COCCCNC(=O)c1c[nH]c2ccc(OC)cc12 | 3.752 | 23.87
Cc1nnc(CN2C[C@H](NC(=O)C3CCOCC3)[C@@H](C(C)C)C2)s1 | -11.86 | 7.579
Cc1noc(C)c1CNC(=O)N(C1CC1)C(C)c1ccco1 (stereo unspecified) | 10.45 | 19.45
Cc1cc(CCC(=O)NCc2ncc[nH]2)ccc1Br | -1.326 | 6.642
COc1ccc2c(c1)OCC(Cc1ccc(C)nc1N)C2 (stereo unspecified) | -19.25 | -4.127
CCN(CC)CC(=O)NCCc1csc(N2CCCC2)n1 | -7.245 | 5.74
[H][C@@]12CCN(c3cnccn3)C[C@@]1(C(=O)O)CCCN2CCCSC | -52.63 and 2.507 | -43.86
CCc1ccc(CNC(=O)N2CCN(Cc3cc(C)no3)CC2)s1 | -7.374 | -20.92
CC(CCS(C)(=O)=O)NC(=O)NCc1ccc2c(c1)CCC2 (stereo unspecified) | -1.238 | 19.99
CCC(C)N(Cc1cc(C)n[nH]1)Cc1ccccc1Cl (stereo unspecified) | -17.22 | -12.42
CC(C)Oc1ccc(C(=O)NCc2ccnc(N3CCCC3)c2)cn1 | 53.13 | 56.63 and 45.38
CCc1nc(C2CCCN2C(=O)c2cc3c(s2)CCC3)no1 (stereo unspecified) | -2.394 | 5.782 and -33.37
Cc1ccsc1CN(C)CCc1scnc1C | 9.521 | -4.417 and 5.719
O=C(c1cnc(NCC2CCCO2)c(Cl)c1)N1CCOCC1 (stereo unspecified) | 10.86 and 1.16 | -2.764
COC(=O)[C@H]1CN(C(=O)NC(C)C)CCN1C(=O)C1CCCCC1 | -10.21 | -34.23 and -3.647
CC(C)(C)OC(=O)N1CCCN(Cc2ccon2)c2ccccc21 | -8.834 | 12.35 and -7.344
Cc1ncc2c(n1)CN(CC(=O)Nc1cc(C)on1)CC2 | 5.637 | -13.84
CN(CC1CC1)S(=O)(=O)c1ccc(C(F)(F)F)cc1C#N | 5.084 | 23.34
Cc1nc(CNC(=O)Nc2ccc3c(c2)CCCN3C)sc1C | -15.48 | -16.61 and 5.86

The last 4 entries again:

- CC(C)(C)OC(=O)N1CCCN(Cc2ccon2)c2ccccc21 : Mtb cholesterol medium: -8.834%; Mtb glucose medium: 12.35% and -7.344%
- Cc1ncc2c(n1)CN(CC(=O)Nc1cc(C)on1)CC2 : Mtb cholesterol medium: 5.637%; Mtb glucose medium: -13.84%
- CN(CC1CC1)S(=O)(=O)c1ccc(C(F)(F)F)cc1C#N : Mtb cholesterol medium: 5.084%; Mtb glucose medium: 23.34%
- Cc1nc(CNC(=O)Nc2ccc3c(c2)CCCN3C)sc1C : Mtb cholesterol medium: -15.48%; Mtb glucose medium: -16.61% and 5.86%

Data taken from ChEMBL document CHEMBL3988442, “University of Dundee, Small-Polar-MMV Screening Library” (2021).